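Malaria parasite (P. falciparum) lines kept in red blood cells; parasite DNA is measured by SYBR Green fluorescence after lysis, 72 h after compound addition. Each compound was titrated across a series from about 0.000037 to 29 µM. The number is the fitted AC50, the concentration giving a half-maximal change in signal; a lower value means higher potency, whether the curve shows a decrease or an increase. Calls follow the curve class and fit quality: every row here is inconclusive, covering signal-raising curves and weak, poorly fitted, partial or highest-dose-only inhibition curves.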

Values are in µM. Every entry below has the call inconclusive. These entries are mostly ones the record files as inconclusive; other results of the assay are not listed here. A potency from a partial, single-point or poor curve is only a rough figure. The first word of each remark tells which way the curve ran; it can be opposite to the aim of the assay. An entry listed twice with the same setting is a separate test.

With O=[N+]([O-])c1c(Cl)cccc1-c1c[nH]cc1Cl [P94_40] the assay gave potency 10 µM (inhibitor, single point).
With O=[N+]([O-])c1c(Cl)cccc1-c1c[nH]cc1Cl [CP260] the assay gave potency 17.78 µM (inhibitor, single point).
With CC(=O)O[C@]1(C(C)=O)CCC2C3CCC4=CC(=O)CCC4(C)C3(F)C(O)CC21C (some centres not stated) [7G8] the assay gave potency 10 µM (inhibitor, single point).
With CC(=O)O[C@]1(C(C)=O)CCC2C3CCC4=CC(=O)CCC4(C)C3(F)C(O)CC21C (some centres not stated) [ICS] the assay gave potency 11.22 µM (inhibitor, single point).
With CC(=O)O[C@]1(C(C)=O)CCC2C3CCC4=CC(=O)CCC4(C)C3(F)C(O)CC21C (some centres not stated) [W2] the assay gave potency 16.94 µM (inhibitor, single point).
With CCCCC1C(=O)N(c2ccccc2)N(c2ccccc2)C1=O [W2] the assay gave potency 15.1 µM (inhibitor, single point).
With CCCCC1C(=O)N(c2ccccc2)N(c2ccccc2)C1=O [W2] the assay gave potency 19.01 µM (inhibitor, single point).
With COC(=O)Nc1nc2ccc(Sc3ccccc3)cc2[nH]1 [CP192] the assay gave potency 0.0072 µM (inhibitor, full curve, poor fit).
With COC(=O)Nc1nc2ccc(Sc3ccccc3)cc2[nH]1 [CP266] the assay gave potency 0.0013 µM (activator).
With Cc1cccc(C)c1NC(=O)NC1=CCCN1C [CP266] the assay gave potency 4.256 µM (inhibitor, partial curve, poor fit).
With CCC(COC(=O)c1cc(OC)c(OC)c(OC)c1)(c1ccccc1)N(C)C (configuration not stated) [CP237] the assay gave potency 7.943 µM (inhibitor, single point).
With CCC(COC(=O)c1cc(OC)c(OC)c(OC)c1)(c1ccccc1)N(C)C (configuration not stated) [TAB165] the assay gave potency 3.548 µM (inhibitor, full curve, poor fit).
With CCC(COC(=O)c1cc(OC)c(OC)c(OC)c1)(c1ccccc1)N(C)C (configuration not stated) [P94_40] the assay gave potency 10 µM (inhibitor, single point).
With CCC(COC(=O)c1cc(OC)c(OC)c(OC)c1)(c1ccccc1)N(C)C (configuration not stated) [GB4] the assay gave potency 12 µM (inhibitor, partial curve).
With Cc1c(C)n(CCN(C)C)c2ccc(C(=O)OCCN(C)C)cc12 [CP260] the assay gave potency 11.22 µM (inhibitor, single point).
With Cc1c(C)n(CCN(C)C)c2ccc(C(=O)OCCN(C)C)cc12 [ICS] the assay gave potency 11.22 µM (inhibitor, single point).
With Cc1c(C)n(CCN(C)C)c2ccc(C(=O)OCCN(C)C)cc12 [GB4] the assay gave potency 16.94 µM (inhibitor, partial curve, poor fit).

Some entries from above, unchanged:

With CC(=O)O[C@]1(C(C)=O)CCC2C3CCC4=CC(=O)CCC4(C)C3(F)C(O)CC21C (some centres not stated) [W2] the assay gave potency 16.94 µM (inhibitor, single point).
With CC(=O)O[C@]1(C(C)=O)CCC2C3CCC4=CC(=O)CCC4(C)C3(F)C(O)CC21C (some centres not stated) [ICS] the assay gave potency 11.22 µM (inhibitor, single point).

Source: PubChem BioAssay AID504749 (NCATS, 2011).